# Laboratory results published in US20110195910A1, “USE OF TOCOTRIENOL COMPOSITION FOR THE PREVENTION OF CANCER” (DAVOS LIFE SCIENCE PTE. LTD., priority 2008, published 2011).
# At least one read-out could not be matched to a standard name with certainty.
# How the values were obtained:
# Format in all cases: cell-based
# [1] = tested on: malignant melanoma (G361) cells; experiment: MTT cell viability, G361 melanoma cells; settings: 24 hrs
# [2] = tested on: human estrogen-independent BCa cells (MDA-MB-231); experiment: MTT cell viability, MDA-MB-231 cells; settings: 24-hr incubation
# Protocol: 1.1.3 Cell viability study and time course experiment—For cell viability study, 1×10^4 cells resuspended in 100 μl medium were plated into each well of a 96-well plate. The cells were then treated with different concentrations of the vitamin-E isomers for 24 hrs. After the treatment, 20 μl of 3-(4,5-Dimethyl thiazol-2-yl)-2,5-diphenyl tetrazolium bromide (MTT) solution was added into each well and the cells were incubated at 37° C. for 2 hrs. The formazan crystals were then re-suspended in 200 μl of DMSO and the intensity at 595 nm was measured. For JNK inhibitor study, cells were pre-treated with 20 μM of SP600125 for 8 hrs prior to the addition of vitamin-E isomers. For time course study, 5×10^3 cells were treated with different concentrations of the vitamin-E isomers and were subjected to MTT cell proliferation assay at the indicated time point. If IC50 for the isomer is >100 μM, 100 μM will be used as treatment dosage.
# 3.1.4 Cell viability and time course experiments were carried out as described above under item 1.1.3 with the following difference. For inhibitors study, cells were pre-treated with inhibitors (U0126, PD98059 and APN) at targeted dosage for 8 hrs prior to the addition of vitamin-E isomers.
# [3] = tested on: human androgen-independent PCa cells (PC-3); experiment: MTT cell viability, PC-3 cells; settings: 24-hr incubation
compound,measurement,setting,value
"CC(C)=CCC/C(C)=C/CC/C(C)=C/CCC1(C)CCc2cc(O)c(C)c(C)c2O1 (stereo not drawn) [γ-T3, 7,8-dimethyltocotrienol]",order of inhibitory effect based on IC50 in G361 cells,[1],γ-T3>δ-T3>β-T3>α-T3≈α-T≈β-T≈γ-T≈δ-T
same,order of inhibitory effect based on IC50 values in MDA-MB-231 cells,[2],gamma-T3>beta-T3>delta-T3
same,order of inhibitory effect based on IC50 values in PC-3 cells,[3],γ-T3>δ-T3>β-T3>>γ-T>δ-T≈α-T3≈α-T≈β-T
